Biological target: tumor necrosis factor (TNF)-alpha (human, UniProt P01375 1-233, Non-covalent homotrimer. Limits are not printed: mature soluble form taken from the SUMO-fusion production; the calculated complex mass of 62.0 kDa less 9.9 kDa for 10F gives about 17.4 kDa per subuni)
Experiment: ITC; 10F (135 µM) injected into TNF-alpha (35.6 µM, per monomer), 25°C, PBS, 0.5 mM EDTA pH 7.4, 0.05% (v/v) Tween-20; single-site binding model
Conditions: both partners purified

Amino acid sequences for entries named in this document (tags omitted).
UniProt P01375, whole entry: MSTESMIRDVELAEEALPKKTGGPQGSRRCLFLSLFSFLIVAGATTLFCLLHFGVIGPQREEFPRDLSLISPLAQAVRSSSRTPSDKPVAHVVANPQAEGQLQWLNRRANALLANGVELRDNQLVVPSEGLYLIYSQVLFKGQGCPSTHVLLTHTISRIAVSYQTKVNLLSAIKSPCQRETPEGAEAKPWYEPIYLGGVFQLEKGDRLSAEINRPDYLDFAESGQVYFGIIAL

B1: ubiquitin variant 10F (designed binder)
chain: MQIFVFTYTGKTITLEVEPSDTIENVKARIQDKEGIPPDQQALEWAGKQLEDGRTLSNIQKESTLPLFLRLRGG
notes: selected by ribosome display; Subcloned without Flag-tag into a modified pET-20b vector; Printed theoretical mass 9.9 kDa; source: E. coli BL21(DE3), purified (HisTrap IMAC, Superdex 75 SEC); 15N-labeled for NMR
Kd: 180 ± 50 nM | dH: -57.3 ± 2.5 kJ/mol | stoichiometry N: 0.35 ± 0.04

From publication PMC3282696 (PLoS ONE, 2012)
